From article PMC10148820
Residue numbers refer to the chain shown, from its start. In names and notes the source's numbering stands. No constants are given. Whether binding was seen depends on the method and setting. Binding seen in cells or lysates may run through a third protein. Some binding calls cover weakened binding; strength is not graded here. Tags and fused reporters may be left off the sequences shown.

T1: Hog1-HIS (S. cerevisiae) (UniProt P32485)
T1 sequence: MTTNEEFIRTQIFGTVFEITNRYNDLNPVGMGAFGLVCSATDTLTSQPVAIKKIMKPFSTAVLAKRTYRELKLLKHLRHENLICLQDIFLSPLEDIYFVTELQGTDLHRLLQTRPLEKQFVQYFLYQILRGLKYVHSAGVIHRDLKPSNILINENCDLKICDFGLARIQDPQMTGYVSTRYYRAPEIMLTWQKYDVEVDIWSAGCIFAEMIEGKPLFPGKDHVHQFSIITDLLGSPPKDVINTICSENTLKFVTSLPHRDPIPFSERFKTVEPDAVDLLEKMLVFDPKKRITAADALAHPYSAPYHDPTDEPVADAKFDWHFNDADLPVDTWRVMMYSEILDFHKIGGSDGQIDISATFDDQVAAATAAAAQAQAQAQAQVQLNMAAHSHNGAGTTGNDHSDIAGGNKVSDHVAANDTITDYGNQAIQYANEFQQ

B1: Pbs2^S248E (enzyme, UniProt P08018 1-668)
chain: MEDKFANLSLHEKTGKSSIQLNEQTGSDNGSAVKRTSSTSSHYNNINADLHARVKAFQEQRALKRSASVGSNQSEQDKGSSQSPKHIQQIVNKPLPPLPVAGSSKVSQRMSSQVVQASSKSTLKNVLDNQETQNITDVNINIDTTKITATTIGVNTGLPATDITPSVSNTASATHKAQLLNPNRRAPRRPLSTQHPTRPNVAPHKAPAIINTPKQSLSARRGLKLPPGGMSLKMPTKTAQQPQQFAPEPSNKKHIETLSNSKVVEGKRSNPGSLINGVQSTSTSSSTEGPHDTVGTTPRTGNSNNSSNSGSSGGGGLFANFSKYVDIKSGSLNFAGKLSLSSKGIDFSNGSSSRITLDELEFLDELGHGNYGNVSKVLHKPTNVIMATKEVRLELDEAKFRQILMELEVLHKCNSPYIVDFYGAFFIEGAVYMCMEYMDGGSLDKIYDESSEIGGIDEPQLAFIANAVIHGLKELKEQHNIIHRDVKPTNILCSANQGTVKLCDFGVSGNLVASLAKTNIGCQSYMAPERIKSLNPDRATYTVQSDIWSLGLSILEMALGRYPYPPETYDNIFSQLSAIVDGPPPRLPSDKFSSDAQDFVSLCLQKIPERRPTYAALTEHPWLVKYRNQDVHMSEYITERLERRNKILRERGENGLSKNVPALHMGGL
B2: Pbs2 (WT) (enzyme, UniProt P08018 1-668)
chain: B1 chain with E248S

Molecular target: T1, Hog1-HIS (S. cerevisiae)
Test: pull-down; Hog1-HIS held on His-tag resin in columns, incubated 2 h at 4 °C with 5 mg total protein of NaCl-stressed yeast extracts (hog1 deletion background) diluted in kinase buffer (50 mM TrisHCl pH 7.5, 10 mM MgCl2, 50 µM ATP); washed with sonication buffer with 100 mM and 200 mM NaCl; Pbs2 detected by Western blot with anti-Pbs2; only the target purified

Row | Binder | binding
1 | B1 | binds
2 | B2 | binds
